In paper PMC5996148 one finds binding signal data, which are given here for 1 sequence.

Protein sequences, listed by entry. Tags and fused reporters are not part of them. Lines headed by an entry give the natural chain unless they say otherwise; changes in a name come on top.
UniProt Q13283: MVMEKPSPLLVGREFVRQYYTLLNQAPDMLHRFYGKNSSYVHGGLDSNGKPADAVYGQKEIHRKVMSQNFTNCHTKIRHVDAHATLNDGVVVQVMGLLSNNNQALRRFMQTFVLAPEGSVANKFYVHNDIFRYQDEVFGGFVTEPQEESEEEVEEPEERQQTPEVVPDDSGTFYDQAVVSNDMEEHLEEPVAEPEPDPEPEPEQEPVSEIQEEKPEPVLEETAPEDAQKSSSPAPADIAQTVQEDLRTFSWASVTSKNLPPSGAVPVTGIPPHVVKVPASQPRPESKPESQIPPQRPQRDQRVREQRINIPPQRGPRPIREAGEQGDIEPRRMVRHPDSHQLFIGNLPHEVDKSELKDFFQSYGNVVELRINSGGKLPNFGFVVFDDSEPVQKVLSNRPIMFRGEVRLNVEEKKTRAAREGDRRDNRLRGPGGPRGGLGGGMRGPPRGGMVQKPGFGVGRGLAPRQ

“And” between values parts separate entries of the source, which are not always exact repeats. Identical values can stand only once. Some of the results follow. For some assays here: The source does not settle which construct or isoform was used.

Holding throughout (test): protein microarray (ProtoArray v5.0), streptavidin-Alexa Fluor 647
Settings in all cases: 3'-biotin; 20 mM Tris (pH 7.5), 5 mM MgCl2, 100 mM KCl, 0.1% Tween-20, A/T-rich and random oligonucleotide blockers; temperature not stated; high values mean tight binding

Assay [1] deals with FUT2 (human).
Assay [2] concerns FXC1 (human).
Assay [3] deals with FXYD1 (human).
Assay [4] has as its system FXYD7 (human).
Assay [5] deals with FYCO1 (human).
The test system of assay [6] is FYVE, RhoGEF and PH domain-containing protein 2 (human).
The test system of assay [7] is Ferritin heavy chain (human).
Assay [8] relates to G protein-coupled receptor kinase 6 (human).
Assay [9] has as its system G1/S-specific cyclin-D1 (human).
Assay [10] addresses G3BP1 (UniProt Q13283).
Assay [11] relates to G6PC (human).
The subject of assay [12] is GA-binding protein subunit beta-1 (human).
Assay [13] relates to GABPA (human).
Assay [14] concerns GABPB2 (human).
The test system of assay [15] is GADD45G (human).
Assay [16] relates to GAMT (human).
Assay [17] has as its system GAP43 (human).
Assay [18] relates to GAPDHS (human).
In assay [19] the test system is GAS2-like protein 3 (human).
In assay [20] the test system is GAST (human).

On to “GGGGACAGGGGTATGGGGAGGGG [G4-3 biotinylated (CtG)]”, for which the binding signal in [1] is -0.307 z-score; in [2], -0.343 z-score; in [3], -0.324 z-score; in [4], -0.312 z-score; in assay [5], -0.31 z-score; in assay [6], -0.341 z-score. For the same sequence, the binding signal was -0.329 z-score in assay [7]; 6.21 z-score in assay [8]; -0.335 z-score in assay [9]; 4.67 z-score in assay [10]; -0.329 z-score in assay [11]; -0.343 z-score in [12]. Moreover, the binding signal in assay [13] is -0.335 z-score; in [14], -0.343 z-score and -0.326 z-score; in assay [15], -0.291 z-score; in assay [16], -0.323 z-score; in assay [17], -0.33 z-score; in assay [18] it was -0.322 z-score. Besides, the binding signal is 3.96 z-score in assay [19] and -0.312 z-score in assay [20].
